Results from patent US20210309716A1.
Results are given in words; binding and its absence hold for the method and conditions named. Some results given as binding are weak or reduced against the parent protein; the word gives no strength.

Sequences of proteins named here, by UniProt entry; tags and fusion partners are left off. A change or cut given only in a name is not applied to a line headed by its entry.
UniProt P20023: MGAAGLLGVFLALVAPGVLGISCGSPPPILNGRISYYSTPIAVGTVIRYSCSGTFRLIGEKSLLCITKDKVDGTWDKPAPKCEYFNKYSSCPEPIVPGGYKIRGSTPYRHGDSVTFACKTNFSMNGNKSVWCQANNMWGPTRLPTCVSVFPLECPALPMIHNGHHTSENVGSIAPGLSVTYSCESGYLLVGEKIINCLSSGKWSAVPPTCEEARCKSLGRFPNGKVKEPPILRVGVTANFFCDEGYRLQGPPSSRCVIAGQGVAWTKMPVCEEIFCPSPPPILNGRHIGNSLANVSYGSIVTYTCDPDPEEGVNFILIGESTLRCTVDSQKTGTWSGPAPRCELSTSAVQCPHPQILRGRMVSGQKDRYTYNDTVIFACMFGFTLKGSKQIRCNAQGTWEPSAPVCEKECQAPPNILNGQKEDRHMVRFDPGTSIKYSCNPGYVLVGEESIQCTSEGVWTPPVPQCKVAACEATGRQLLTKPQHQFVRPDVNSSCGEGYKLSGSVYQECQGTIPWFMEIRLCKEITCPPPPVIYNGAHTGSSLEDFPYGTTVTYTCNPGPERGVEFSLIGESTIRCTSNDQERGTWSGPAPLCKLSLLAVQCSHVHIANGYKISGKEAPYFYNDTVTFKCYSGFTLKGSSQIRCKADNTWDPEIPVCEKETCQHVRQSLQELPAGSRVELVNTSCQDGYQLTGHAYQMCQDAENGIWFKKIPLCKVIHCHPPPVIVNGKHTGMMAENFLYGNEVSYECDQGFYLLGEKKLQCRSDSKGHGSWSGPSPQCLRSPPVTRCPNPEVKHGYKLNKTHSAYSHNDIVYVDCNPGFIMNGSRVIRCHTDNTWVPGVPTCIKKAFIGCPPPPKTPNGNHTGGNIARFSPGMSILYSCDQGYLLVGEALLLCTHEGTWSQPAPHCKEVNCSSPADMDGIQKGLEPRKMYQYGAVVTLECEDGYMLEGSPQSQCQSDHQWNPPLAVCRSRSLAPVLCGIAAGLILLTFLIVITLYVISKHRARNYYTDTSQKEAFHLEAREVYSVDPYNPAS

B1: MP27966 (Fc fusion, not shown: a dimerising Fc or GST; small tags and cut ends)
scFv: QVQLQQSGAELVKPGSSVKISCKASGYTFTTNFMHWIKQQPGNGLEWIGWINPGDGNTEYNQKFNVKATLTADKSSSTAYMELGSLTSEDSAVYFCARGDYSGWGPNWFDYWGQGTLVTVSSGGGGSGGGGSGGGGSDIQLTQSPSSMSASLGDTVTITCLASQDIGDYLSWYQQKPGKSPKVMVYGATNLEDGVPSRFSGSRSGSDYSLTINSLGYDDEGIYHCHQYYQYPLTFGSGTKLEIKR
B2: MP27965 (Fc fusion, not shown: a dimerising Fc or GST; small tags and cut ends)
scFv: QVQLQQSGAELVKPGSSVKISCKASGYTFTTNFMHWIKQQPGNGLEWIGWINPGDGNTEYNQKFNVKATLTADKSSSTAYMELGSLTSEDSAVYFCARGDYSGWGPNWFDYWGQGTLVTVSSDGGGSGGGGSGGGGSDIQMTQSPASLSASLGETVTIECRASEDIYSNLAWYQQKPGNSPQLLIHDANNLADGVPSRFSGSGSGTQYSLKINSLQSEDVASYFCQQYNNYPLTFGSGTKLEIKR
B3: MP28132 (Fc fusion, not shown: a dimerising Fc or GST; small tags and cut ends)
scFv: QVQLQQSGAELVEPGSSVKISCKASGYTFTSNFMHWIRQQPGNGLEWIGWVYRGDGDTEYNQRFNGKATLTADESSSTAYIQLSGLTSEDSAVYFCARGDSSGWGPNWFDSWGQGTLVTVSSGGGGSGGGGSGGGGSDVQMTQSPASLSASLGETVTIECRASEDIYSNLAWYQQKPGNSPQLLIYDANSLADGVPSRFSGSGSGTQYSLKINSLQSEDVASYFCQQYNNYPLTFGSETRLEIKR
B4: MP27964 (Fc fusion, not shown: a dimerising Fc or GST; small tags and cut ends)
scFv: EVHLQQSGAELVKPGSSVKISCKASGYTFTSNFMHWIKQQPGNGLEWIGWIYPGDGDTEYNQKFNGKASLTADKSSSTAYMQLSSLTSEDSAVYFCALSGDGYFDYWGQGVMVTVSSGGGGSGGGGSGGGGSEIVLTQSPTTMTASPGEKVTITCRVSSSVSYMHWYQQKPDASPKPWIYETSKLASGVPDRFSGSGSGTSYSLTINNMEAEDAATYYCQQWNFPLTFGSGTKLEIKR
B5: MP27967 (Fc fusion, not shown: a dimerising Fc or GST; small tags and cut ends)
scFv: EVQLQQSGAELGKPGTSVKLSCKVSGYNIRNTYIHWVNQRPGKGLEWIGRIDPANGDTIYAEKFKSKATLTADTSSNTAYMQLSQLKSDDTAIYFCAMRMVGTGGYAMDAWGQGASVTVSSGGGGSGGGGSGGGGSDIVLTQSPALAVSPGQRATISCRASQSVSISSVNLMNWYQQKPGQQPKLLIYHASNLASGIPTRFSGSGSGTDFTLTIDPVQADDIATYYCQQSRESPWTFGGGTKLELKR
B6: MP27963 (Fc fusion, not shown: a dimerising Fc or GST; small tags and cut ends)
scFv: QVQLQQSGAELVRPGSSVKISCKASGYTFTSNFMHWIKQQPGNGLEWIGWISPGDGDTEYNQKFNGKATLTADESSSTAYIQLSGLTSEDSAVYFCARGDSSGWGPNWFDSWGQGTLVTVSSGGGGSGGGGSGGGGSDIQMTQSPSSMSASLGDTVTITCLASQDIGNYLSWYQQKPGKSPKLMIYDVNNLEDGVPSRFSGSRSGSNHSLTINSLGYDDEGIYHCQQYYEYPLTFGSGTKLEIKR

molecular target: human CD21 (human) (UniProt P20023); test: phage display panning on beads coated with immobilised CD21; clones tested as ScFv-MuFc fusions by flow cytometry on H9 cells transduced to express CD21 (FIG. 4D)

Row | binding | Binder
1 | binds | B1
2 | binds | B2
3 | binds | B3
4 | binds | B4
5 | binds | B5
6 | binds | B6
